Assay results published in patent US20250042957A1.
Changes are numbered by the printed parent chain. Results are given in words; binding and its absence hold for the method and conditions named. Some entries that bind do so weakly or less than the wild type.

Protein sequences, listed by entry. Tags and fused reporters are not part of them. Lines headed by an entry give the natural chain unless they say otherwise; changes in a name come on top. Chains listed by the source or under a name are the forms on record and can include a tag or linker.
VEGF165 (P15692, form named): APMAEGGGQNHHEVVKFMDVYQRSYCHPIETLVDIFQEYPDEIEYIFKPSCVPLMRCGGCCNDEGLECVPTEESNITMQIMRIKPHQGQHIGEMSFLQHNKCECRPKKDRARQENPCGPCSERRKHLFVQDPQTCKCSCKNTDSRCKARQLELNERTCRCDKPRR

B1: Switchdrug DARPin 13-A (designed binder)
chain: MRGSHHHHHHGSDLGKKLLQAARAGQLDEVRELLKAGADVNAKDQYGRTPLHLAAIKGHLEIVEVLLKAGADVNAKDSLGYTPLHLAAVEGPLEIVEVLLKAGADVNAKDAYGQTPLHIAAAWGHLEIVEVLLKAVADVNAQDKSGKTPADLAARAGHQDIAEVLQKAAGSPTPTPTTPTPTPTTPTPTPTGSDLGQKLLEAAWAGQDDEVRELLKAGADVNAKNSRGWTPLHTAAQTGHLEIFEVLLKAGADVNAKNDKRVTPLHLAAALGHLEIVEVLLKAGADVNARDSWGTTPADLAAKYGHQDIAEVLQKAAGSPTPTPTTPTPTPTTPTPTPTGSDLDKKLLEAARAGQDDEVRILLKAGADVNAKDSTGWTPLHLAAPWGHPEIVEVLLKAGADVNAKDFYGWTPLHLAAAAGHLEIVEVLLKAGADVNAKDWLGWTPLHLAASHGHLEIVEVLLKAGADVNAQDKSGKTPADLAARAGHQDIAEVLQKAA
B2: Switchdrug DARPin 13-B (designed binder)
chain: MRGSHHHHHHGSDLDKKLLEAARAGQDDEVRILLKAGADVNAKDSTGWTPLHLAAPWGHPEIVEVLLKAGADVNAKDFYGWTPLHLAAAAGHLEIVEVLLKAGADVNAKDWLGWTPLHLAASHGHLEIVEVLLKAGADVNAQDKSGKTPADLAARAGHQDIAEVLQKAAGSPTPTPTTPTPTPTTPTPTPTGSDLGKKLLQAARAGQLDEVRELLKAGADVNAKDQYGRTPLHLAAIKGHLEIVEVLLKAGADVNAKDSLGYTPLHLAAVEGPLEIVEVLLKAGADVNAKDAYGQTPLHIAAAWGHLEIVEVLLKAVADVNAQDKSGKTPADLAARAGHQDIAEVLQKAAGSPTPTPTTPTPTPTTPTPTPTGSDLGQKLLEAAWAGQDDEVRELLKAGADVNAKNSRGWTPLHTAAQTGHLEIFEVLLKAGADVNAKNDKRVTPLHLAAALGHLEIVEVLLKAGADVNARDSWGTTPADLAAKYGHQDIAEVLQKAA
B3: Switchdrug DARPin 15-A (designed binder)
chain: B1 chain with Y408Q
B4: Switchdrug DARPin 15-B (designed binder)
chain: B2 chain with Y79Q
B5: Switchdrug DARPin 17-A (designed binder)
chain: B1 chain with D344G, E349Q, D356L, I361E, Y408Q
B6: Switchdrug DARPin 18-A (designed binder)
chain: MRGSHHHHHHGSDLGKKLLQAARAGQLDEVRELLKAGADVNAKDQYGRTPLHLAAIKGHLEIVEVLLKAGADVNAKDSLGYTPLHLAAVEGPLEIVEVLLKAGADVNAKDAYGQTPLHIAAAWGHLEIVEVLLKAVADVNAQDKSGKTPADLAARAGHQDIAEVLQKAAGSPTPTPTTPTPTPTTPTPTPTGSDLGQKLLEAAWAGQDDEVRELLKAGADVNAKNSRGWTPLHTAAQTGHLEIFEVLLKAGADVNAKNDKRVTPLHLAAALGHLEIVEVLLKAGADVNARDSWGTTPADLAAKYGHQDIAEVLQKAAGSPTPTPTTPTPTPTTPTPTPTGSDLDKKLLEAARAGQDDEVRILLKAGADVNAKDSTGWTPLHLAAPWGHPEIVEVLLKAGADVNAKDFQGWTPLHLAAAAGHLEIVEVLLKAGADVNAKDVYGWTPLHIAAASGHLEIVEVLLKAGADVNAKDWLGWTPLHLAASHGHLEIVEVLLKAGADVNAQDKSGKTPADLAARAGHQDIAEVLQKAA
B7: Switchdrug DARPin 18-B (designed binder)
chain: MRGSHHHHHHGSDLDKKLLEAARAGQDDEVRILLKAGADVNAKDSTGWTPLHLAAPWGHPEIVEVLLKAGADVNAKDFQGWTPLHLAAAAGHLEIVEVLLKAGADVNAKDVYGWTPLHIAAASGHLEIVEVLLKAGADVNAKDWLGWTPLHLAASHGHLEIVEVLLKAGADVNAQDKSGKTPADLAARAGHQDIAEVLQKAAGSPTPTPTTPTPTPTTPTPTPTGSDLGKKLLQAARAGQLDEVRELLKAGADVNAKDQYGRTPLHLAAIKGHLEIVEVLLKAGADVNAKDSLGYTPLHLAAVEGPLEIVEVLLKAGADVNAKDAYGQTPLHIAAAWGHLEIVEVLLKAVADVNAQDKSGKTPADLAARAGHQDIAEVLQKAAGSPTPTPTTPTPTPTTPTPTPTGSDLGQKLLEAAWAGQDDEVRELLKAGADVNAKNSRGWTPLHTAAQTGHLEIFEVLLKAGADVNAKNDKRVTPLHLAAALGHLEIVEVLLKAGADVNARDSWGTTPADLAAKYGHQDIAEVLQKAA
B8: 2-in-1 DARPin 13 (SEQ ID NO: 8) (designed binder)
chain: DLDKKLLEAARAGQDDEVRILLKAGADVNAKDSTGWTPLHLAAPWGHPEIVEVLLKAGADVNAKDFYGWTPLHLAAAAGHLEIVEVLLKAGADVNAKDWLGWTPLHLAASHGHLEIVEVLLKAGADVNAQDKSGKTPADLAARAGHQDIAEVLQKAA
B9: 2-in-1 DARPin 15 (SEQ ID NO: 9) (designed binder)
chain: B8 chain with Y67Q
B10: 2-in-1 DARPin 17 (SEQ ID NO: 10) (designed binder)
chain: B8 chain with D3G, E8Q, D15L, I20E, Y67Q

Tests used:
VEGF165 [1] = biological target: VEGF165 (UniProt P15692); assay: ELISA: plate-bound biotinylated VEGF165, His-tagged construct titrated, no soluble VEGF, anti-His-HRP detection
VEGF165 [2] = biological target: VEGF165 (UniProt P15692); assay: ELISA, biotinylated VEGF165 on neutravidin plate, anti-His detection; residual binding of the closed form
VEGF165 [3] = biological target: VEGF165 (UniProt P15692); assay: screen of 29 designs
VEGF165 [4] = biological target: VEGF165 (UniProt P15692); assay: SPR (ProteOn)

Binder | binding (VEGF165 [1]) | binding (VEGF165 [2]) | binding (VEGF165 [3]) | binding (VEGF165 [4])
B1 | binds | binds |  | 
B2 | binds | binds |  | 
B3 | binds | binds |  | 
B4 | binds | binds |  | 
B5 | binds | binds |  | 
B6 | binds | binds |  | 
B7 | binds | binds |  | 
B8 |  |  | binds | binds
B9 |  |  | binds | binds
B10 |  |  | binds | binds
